In patent publication US7998460B2, “Prevention of deficits in neurogenesis with anti-inflammatory agents” (The Board of Trustees of the Leland Stanford Junior …, priority 2003, dated 2011):
At least one structure is not confirmed: it was looked up by name or label, or the drawing left a doubt.

System: hippocampal neurogenesis
Assay: Oral NSAID course and LPS challenge, hippocampal neurogenesis at day 28 in mice
Assay type: in vivo, mouse
Conditions: oral NSAID course, LPS 5 mg/kg; for effect on LPS-induced reduction of transition state and mature neurons: Day 28

| Compound | effect on LPS-induced deficit in fraction of newborn cells adopting a neuronal fate (DCX and/or NeuN) by Day 28 | effect on LPS-induced reduction of transition state and mature neurons | effect on LPS-induced deficit in fraction of newborn cells adopting a neuronal fate (DCX and/or NeuN) by Day 28 (listed as rosiglitizone) |
| --- | --- | --- | --- |
| Cc1ccc(-c2cc(C(F)(F)F)nn2-c2ccc(S(N)(=O)=O)cc2)cc1 [Celebrex, celecoxib] | no protective effect | conferred no protection | – |
| CN(CCOc1ccc(CC2SC(=O)NC2=O)cc1)c1ccccn1 (stereo not shown) [rosiglitazone] | – | completely rescued neurogenesis | completely prevented the deficits in neurogenesis |
